Measurements: PubChem BioAssay AID1259415 (National Center for Advancing Translational Sciences (NCATS), 2018)
In all, about 410,000 compounds went through this assay and about 18,000 (4.4%) were called active. This list was built around the results that the source calls inconclusive (neither active nor inactive); the mix of calls is not that of the screen. Cut-off read from the data, not from the text of the source: active = activity change below about -60%; inconclusive = no clear call, values can overlap the other calls; inactive = above about -39%.

Assay: qHTS Assay for inhibitors of the human cytomegalovirus (HCMV)
Conditions: HFF cells, HCMV-luciferase reporter, 72 h; at 57.5 µM; active compounds read low
How it was run: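 Inhibition of viral replication was scored as loss of reporter luminescence in HFFs infected with HCMV-luciferase (MOI 1 PFU/cell) for 72 h; compounds tested at 2 doses, normalized to buffer and Salinomycin controls.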
% is set by controls: 0 for no effect and ±100 for the full control effect.

Structure (SMILES)	activity change, negative = inhibition
CC1(C)CC(=O)C2=C(C1)NC(SCC(=O)Nc1ccccc1)=C(C#N)C2c1ccco1 (stereo not drawn)	inconclusive: -56.2%
O=c1c2cc(Br)ccc2nc(-c2cccc(Cl)c2)n1O	inconclusive: -41.9%
Cc1ccccc1CN1C(=O)c2ccccc2S(=O)(=O)c2ccc(C(=O)OCC3CCCO3)cc21 (stereo not drawn)	inactive: -3.68%
CCOC(=O)C1=C(C)NC(C)=C(C(=O)OCC)C1C(=O)OCC(=O)N(C)C1CCS(=O)(=O)C1 (stereo not drawn)	inactive: -37.8%
CCc1cc2c(=O)n(Cc3ccco3)c(SCC(=O)NC3CCS(=O)(=O)C3)nc2s1 (stereo not drawn)	inactive: 8.14%
Cc1cccc(NCc2ccc(Br)cc2)n1	inconclusive: -42.9%
CC(C)Oc1ccc(C(=O)N(Cc2ccco2)Cc2cccs2)cc1	inconclusive: -56%
CCOC(=O)c1ccccc1NC(=O)CSc1nccn1Cc1ccco1	inconclusive: -46.1%
CCOc1cc(N2CCC(O)CC2)ccc1Nc1ncc2c(n1)N(C)c1ccccc1C(=O)N2C	inconclusive: -51.3%
CC(/C=C/c1ccccc1)=N\NC(=O)c1ccc2c(c1)OCCO2	inactive: -17.4%
O=C1Nc2ccc(S(=O)(=O)N3CCCC3)c3ccc(S(=O)(=O)N4CCCC4)c1c23	inconclusive: -45.5%
CCN1CCN(c2cc(C)nc(-c3ccccc3O)n2)CC1	inconclusive: -42.3%
CCOC(=O)c1ccc(N2CCCCC2)c(NS(=O)(=O)c2cccc(C(F)(F)F)c2)c1	active: -64.9%
COc1ccc(-c2nc(SCC(=O)Nc3c(C)cc(C)cc3C)n[nH]2)cc1	inconclusive: -44.3%
CCOc1ccccc1OCC(=O)Nc1ccc(Cl)cc1C(=O)c1ccccc1	inconclusive: -58.4%
CCc1nc2sc(C(C)=O)c(N)c2c2c1CCCC2	inconclusive: -57.3%
Cc1ccc(N(C(=O)CCCC(=O)Nc2ccccn2)C(C(=O)NC2CCCC2)c2ccc(O)cc2)cc1C (stereo not drawn)	inconclusive: -51.1%
COc1ccc(N2CC(NC(=O)C(c3ccccc3)c3ccccc3)CC2=O)cc1OC (stereo not drawn)	inactive: 18.8%
CC(C)OC(=O)c1ccc(N2C(=O)C3CC=CCC3C2=O)cc1 (stereo not drawn)	inactive: 31.4%
CN1CCc2ccc(NC(=O)c3ccc(C(F)(F)F)cc3)cc2C1	inconclusive: -44.2%
COC(=O)c1nnn(CC(=O)NC(=O)Nc2c(C)cccc2C)c1C(=O)OC	inconclusive: -45%
Cc1c(NC(=O)Nc2cc(F)c(F)cc2Cl)c(=O)n(-c2ccccc2)n1C	inactive: 22.3%
COc1ccc(Br)cc1C(=O)N/N=C/c1ccc2c(c1)n(C)c(=O)n2C	inconclusive: -52.3%

5 compounds already listed, sorted by formula weight, smallest number first.
Structure (SMILES)	activity change, negative = inhibition
Cc1cccc(NCc2ccc(Br)cc2)n1	inconclusive: -42.9%
CCN1CCN(c2cc(C)nc(-c3ccccc3O)n2)CC1	inconclusive: -42.3%
O=c1c2cc(Br)ccc2nc(-c2cccc(Cl)c2)n1O	inconclusive: -41.9%
CCOC(=O)c1ccccc1NC(=O)CSc1nccn1Cc1ccco1	inconclusive: -46.1%
Cc1ccc(N(C(=O)CCCC(=O)Nc2ccccn2)C(C(=O)NC2CCCC2)c2ccc(O)cc2)cc1C (stereo not drawn)	inconclusive: -51.1%
